Results deposited as PubChem BioAssay AID686938 (Drosophila RNAi Screening Center, 2013)
Assay: 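Fly genes required for calcium entry once internal stores are emptied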 (primary screen). System: Drosophila S2R+ cells. Knock-down reagent: long dsRNA against Drosophila genes, about 0.25 µg dsRNA per well, roughly 10,000 cells. Timing: 5 days of knock-down before the calcium assay. Conditions: thapsigargin (SERCA pump blocker) to empty calcium stores; entry signal taken 4 min after adding it. Measurement: 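Duplicate raw fluo-4 intensities per well from a plate reader, at rest and four minutes after thapsigargin emptied calcium stores; entry-to-rest ratio filled for only some wells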. Reading the numbers: calcium entry signal: higher = stronger calcium signal after store depletion; resting calcium signal: higher = higher resting calcium signal. Active means: 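Called when the plate z-score of the entry-to-rest ratio, mean of duplicates, falls below −3; wells with low overall dye signal (Fmax z below −2) or more than five off-targets excluded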. Meaning of the calls: active = strongly reduced calcium entry; inactive = no strong reduction.
The screen tested about 23,000 reagents; below is a random part of those that have a named target and a result. Over the whole deposit, 75 (0.33%) were called active. 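Raw plate signals without normalisation; calls rest on plate z-scores that were not deposited; ratio present for only 364 wells.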 Reagents against one gene are numbered here. The record does not give: the dose of the treatment.

predicted target	dsRNA no.	calcium entry signal, replicate 1 (fluorescence units)	calcium entry signal, replicate 2 (fluorescence units)	resting calcium signal, replicate 1 (fluorescence units)	resting calcium signal, replicate 2 (fluorescence units)	outcome
CG4945	1	3.54e7	3.59e7	1.74e7	1.78e7	inactive
mtgo	1	4.85e7	4.34e7	2.17e7	2.07e7	inactive
mtgo	2	4.16e7	3.67e7	1.90e7	1.77e7	inactive
mtgo	3	5.59e7		2.69e7		inactive
mtgo	4	4.41e7	3.96e7	2.47e7	1.89e7	inactive
mtgo	5	3.40e7	3.79e7	1.84e7	1.71e7	inactive
ppk31	1	3.15e7	3.97e7	1.63e7	1.84e7	inactive
how	1	3.53e7	4.77e7	2.32e7	6.11e7	inactive
CG34144 (retired record)	1	3.43e7	3.29e7	1.52e7	1.48e7	inactive
CG34144 (retired record)	2	4.03e7	4.31e7	1.88e7	1.94e7	inactive
CG34144 (retired record)	3	4.33e7	6.30e7	1.98e7	2.83e7	inactive
CG34144 (retired record)	4	3.94e7	4.68e7	1.90e7	1.97e7	inactive

3 entries from above, set out differently:
CG4945
- calcium entry signal, replicate 1 (fluorescence units): 3.54e7
- calcium entry signal, replicate 2 (fluorescence units): 3.59e7
- resting calcium signal, replicate 1 (fluorescence units): 1.74e7
- resting calcium signal, replicate 2 (fluorescence units): 1.78e7
- outcome: inactive

mtgo #1
- calcium entry signal, replicate 1 (fluorescence units): 4.85e7
- calcium entry signal, replicate 2 (fluorescence units): 4.34e7
- resting calcium signal, replicate 1 (fluorescence units): 2.17e7
- resting calcium signal, replicate 2 (fluorescence units): 2.07e7
- outcome: inactive

mtgo #2
- calcium entry signal, replicate 1 (fluorescence units): 4.16e7
- calcium entry signal, replicate 2 (fluorescence units): 3.67e7
- resting calcium signal, replicate 1 (fluorescence units): 1.90e7
- resting calcium signal, replicate 2 (fluorescence units): 1.77e7
- outcome: inactive

More reagents follow.
predicted target	dsRNA no.	calcium entry signal, replicate 1 (fluorescence units)	calcium entry signal, replicate 2 (fluorescence units)	resting calcium signal, replicate 1 (fluorescence units)	resting calcium signal, replicate 2 (fluorescence units)	outcome
Nxf3	1	3.37e7	4.26e7	1.86e7	1.95e7	inactive
CG11815	1	2.39e7	2.72e7	1.30e7	1.32e7	inactive
CG15580	1	4.52e7	4.29e7	2.31e7	2.08e7	inactive
PMP34	1	3.94e7	6.73e7	1.86e7	3.17e7	inactive
CG3589	1	4.02e7		2.14e7		inactive
CG12723	1	4.84e7	3.16e7	2.25e7	1.66e7	inactive
Manf	1	3.24e7	2.99e7	1.52e7	1.43e7	inactive
CG11037	1	3.22e7	6.08e7	1.66e7	2.35e7	inactive
Efa6	1	3.83e7	2.90e7	1.83e7	1.36e7	inactive
Efa6	2	3.82e7	4.64e7	1.88e7	2.13e7	inactive
Efa6	3	3.72e7	4.74e7	1.77e7	2.16e7	inactive
Cdlc2	1	4.22e7		2.18e7		inactive
